The campaign covered roughly 340,000 compounds. About 6,200 (1.8%) were called active. Inconclusive results, whose numbers are uncertain, are shown with a selection of clear calls. The call rests on the fitted dose curve; in most records, active means well fitted activation curve with a large enough effect; inconclusive means small, poorly fitted or top-dose-only effect; inactive means no such curve, though single readings can be large or run the other way. Potencies beside an inconclusive call are fits to weak or partial responses and may not hold up.
Experiment: A quantitative high throughput screen for small molecules that induce DNA re-replication in SW480 colon adenocarcinoma cells. Further: nearly all actives have a fitted effect of over 55% in size. On re-replication activation: % of control where 0% means no effect.
Conditions: Hoechst DNA content imaging, 48 h; re-replication activation: at 46.1 µM (top of the series)
In short: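 Quantitative HTS format with DMSO vehicle controls; 48 hr drug incubation at 37 C, then 40 min Hoechst staining and scanning imager measurement at 405 nm excitation.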
Potency means the concentration at half of the fitted maximal effect.

Q: Which Potency does the source give for `COc1ccc(NS(=O)(=O)c2ccc(N3CCOCC3)c(NC(=O)c3ccc(F)cc3)c2)cc1` here?
A: Its Potency is inconclusive: 29.1 µM [activator, single point].

Q: With `COc1ccc(NC(=S)N/C(=N/CS(=O)(=O)c2ccccc2)c2ccccc2)cc1` as the compound, how does the Potency read?
A: The Potency was inconclusive: 25.9 µM [activator, single point].

Q: For `O=C(C1CC1)N1CCN(c2ccc([N+](=O)[O-])cc2-n2cccc2)CC1`, which Potency is on record?
A: Its Potency is inconclusive: 14.6 µM [activator, single point].

Q: With `NS(=O)(=O)c1ccc(CCNC(c2ccccc2)c2ccccc2)cc1` as the compound, how does the Potency read?
A: Its Potency is “inactive”.

Q: With `CCOC(=O)C1=C(C)NC(=S)NC1c1ccc(OCC(=O)N2CCCCC2)cc1` (configuration not stated) as the compound, how does the Potency read?
A: Its Potency is “inactive”.

Q: For `CC(CCCN1CCCC1)Nc1ccnc2cc(Cl)ccc12` (configuration not stated), which Potency is on record?
A: Its Potency is inconclusive: 23.1 µM [activator, single point].

Q: For `OCC1CCCN(C(=S)Nc2ccc(Nc3ccccc3)cc2)C1` (configuration not stated), which Potency is on record?
A: Its Potency is inconclusive: 13 µM [activator, partial curve, poor fit].

Q: With `Cc1nn(-c2ccccc2)c2c1C1(C(=O)N(C)c3ccccc31)N(c1ccccc1)C(=O)N2` (configuration not stated) as the compound, how does the Potency read?
A: The Potency was inconclusive: 1.03 µM [activator, partial curve, poor fit].

Q: With `CNC(=O)N(C1=NCC(C)(C)S1)c1ccc(F)c(Cl)c1` as the compound, how does the Potency read?
A: The Potency was inconclusive: 16.4 µM [activator, single point].

Q: With `O=C(Cc1ccc(NC(=O)C2CCN(C(=O)c3ccccc3)CC2)cc1)Nc1ccc(C(=O)N2CCOCC2)cc1` as the compound, how does the re-replication activation read?
A: Its re-replication activation is inactive: -1.46% [at 9.22 µM].

Q: Which Potency does the source give for `CCCCCCC(=O)NNC(=O)CC(=O)Nc1ccccc1C(=O)O` here?
A: Its Potency is inconclusive: 6.51 µM [activator, single point].

Q: With `CCC(C(=O)N1CCC(N2CCCCC2)CC1)n1nc(C)c2sc3ccccc3c2c1=O` (configuration not stated) as the compound, how does the Potency read?
A: The Potency was “inactive”.

Q: Which Potency does the source give for `COc1ccc(OCCCC(=O)Nc2ccc(N3CCOCC3)cc2)cc1` here?
A: The Potency was inconclusive: 6.51 µM [activator, single point].

Q: Which Potency does the source give for `COc1ccc(NS(=O)(=O)c2cccc(NC(=O)C3=NN(c4ccccc4)C(=O)CC3)c2)cc1` here?
A: Its Potency is “inactive”.

Q: For `COc1ccccc1NS(=O)(=O)c1cc(NC(C)=O)ccc1N1CCCCC1`, which Potency is on record?
A: Its Potency is “inactive”.

Q: For `CC(C)(c1ccccc1)c1ccc(OCCCN2CCNCC2)cc1`, which Potency is on record?
A: The Potency was inconclusive: 29.1 µM [activator, single point].

Q: With `CCC(OC(=O)c1ccco1)C(=O)NC1CCCC1` (configuration not stated) as the compound, how does the Potency read?
A: The Potency was “inactive”.

Q: Which Potency does the source give for `CCCNC(=O)CSc1nc2[nH]ncc2c(=O)[nH]1` here?
A: The Potency was inconclusive: 5.8 µM [activator, full curve, poor fit].

Q: Which Potency does the source give for `CS/C(N)=N/N=C/c1cc(Br)cc(Br)c1O` here?
A: The Potency was inconclusive: 23.1 µM [activator, single point].

Q: With `CS(=O)(=O)c1ccccc1C(=O)N1CCN(Cc2ccccc2)CC1` as the compound, how does the Potency read?
A: The Potency was “inactive”.

Q: For `CC(=O)NNC(=O)c1[nH]c2ccc(Br)cc2c1-c1ccccc1`, which Potency is on record?
A: Its Potency is inconclusive: 29.1 µM [activator, single point].

Q: Which Potency does the source give for `COc1ccc2cc(CN(CC3CCCO3)C(=S)Nc3ccccc3)c(=O)[nH]c2c1` (configuration not stated) here?
A: The Potency was active: 16.4 µM.

Q: With `COc1ccccc1N1CCN(C2CCCN(C(=O)c3snnc3C)C2)CC1` (configuration not stated) as the compound, how does the Potency read?
A: The Potency was “inactive”.

Q: With `CCOc1ccc2nc(C)cc(Nc3ccc(N4CCOCC4)cc3)c2c1` as the compound, how does the Potency read?
A: The Potency was inconclusive: 29.1 µM [activator, single point].

Q: Which Potency does the source give for `O=C(CSc1nnc(NC(=O)c2c(F)cccc2F)s1)NCC1CCCO1` (configuration not stated) here?
A: Its Potency is inconclusive: 6.51 µM [activator, single point].

Q: For `COc1ccccc1/C=C/C=N/NC(=O)c1ccncc1`, which Potency is on record?
A: The Potency was “inactive”.

Q: Which Potency does the source give for `N#CC1=C(N)C(C#N)(C#N)[C@H](c2cccnc2)[C@H]2CN(C(=O)OCc3ccccc3)CC=C12` here?
A: Its Potency is inconclusive: 29.1 µM [activator, single point].

Q: With `O=c1oc2ccccc2c(O)c1/C=C1\C=Nc2ccccc21` as the compound, how does the Potency read?
A: Its Potency is inconclusive: 16.4 µM [activator, single point].

Q: Which Potency does the source give for `N#Cc1c(-c2ccc(Cl)cc2)n(O)c2ccccc12` here?
A: The Potency was active: 8.2 µM.

Q: For `COc1cc(NC(=S)Nc2cccnc2)cc(OC)c1`, which Potency is on record?
A: Its Potency is inconclusive: 29.1 µM [activator, single point].

Q: For `O=C(Cc1ccccc1)Nc1ccc(S(=O)(=O)N2CCCC2)cc1`, which Potency is on record?
A: Its Potency is inconclusive: 2.91 µM [activator, single point].

Q: For `CCOc1ccc(NC(=O)C2CCCN(S(=O)(=O)c3ccc4[nH]c(=O)ccc4c3)C2)cc1` (configuration not stated), which Potency is on record?
A: Its Potency is inconclusive: 29.1 µM [activator, single point].

Q: With `CNC(=O)c1c(NC(=O)c2ccc(S(=O)(=O)N3CCCc4ccccc43)cc2)sc2c1CCN(C)C2` as the compound, how does the Potency read?
A: The Potency was inconclusive: 20.6 µM [activator, single point].

Q: For `CCOC(=O)CNCCC(=O)c1ccc(Br)cc1`, which Potency is on record?
A: Its Potency is inconclusive: 18.4 µM [activator, single point].

Q: Which Potency does the source give for `CC1CCN(C(=O)CSc2nc3cccnc3n2C)CC1` here?
A: Its Potency is inconclusive: 3.16 µM [activator, partial curve, poor fit].

Q: With `C=CCn1c(SCC(=O)c2ccc(Cl)cc2)nnc1-c1ccc2c(c1)OCO2` as the compound, how does the Potency read?
A: Its Potency is inconclusive: 29.1 µM [activator, partial curve, poor fit].

Q: Which Potency does the source give for `O=C(NCC(c1cccs1)N1CCOCC1)c1ccc(Cl)cc1` (configuration not stated) here?
A: The Potency was inconclusive: 18.4 µM [activator, partial curve].

Q: For `COc1ccc(NC(=O)C(Cl)=C(Cl)Cl)cn1`, which Potency is on record?
A: The Potency was inconclusive: 25.9 µM [activator, single point].

Q: For `CC(C)(C)OC(=O)NCCCCCNC(=O)c1nc[nH]c1C(=O)NCc1ccc(CNC(=O)OC(C)(C)C)cc1`, which Potency is on record?
A: Its Potency is inconclusive: 0.82 µM [activator, partial curve, poor fit].

Q: Which Potency does the source give for `COCC1CCCN(C(=O)c2cc(COc3cncc(Cl)c3)on2)C1` (configuration not stated) here?
A: The Potency was inconclusive: 14.6 µM [activator, single point].

Q: For `COc1ccc(CN(CCNC(=O)CCCCC(=O)NCCN(Cc2ccc(OC)cc2)C(C)C)C(C)C)cc1`, which Potency is on record?
A: Its Potency is inconclusive: 18.4 µM [activator, partial curve, poor fit].

Q: With `CN(CC(=O)Nc1ccccc1Br)CC(=O)Nc1ccccc1-c1ccccc1` as the compound, how does the Potency read?
A: The Potency was inconclusive: 4.11 µM [activator, single point].

Source: PubChem BioAssay AID624297 (National Center for Advancing Translational Sciences (NCATS), 2012)
